Measured values taken from the supplement of paper PMC10849652.
This is one part of the list.

The chains behind the UniProt entries cited, without tags or fusion partners. Where a name states a change or a piece, a line headed by the entry shows the natural chain unless it says otherwise.
UniProt P11498: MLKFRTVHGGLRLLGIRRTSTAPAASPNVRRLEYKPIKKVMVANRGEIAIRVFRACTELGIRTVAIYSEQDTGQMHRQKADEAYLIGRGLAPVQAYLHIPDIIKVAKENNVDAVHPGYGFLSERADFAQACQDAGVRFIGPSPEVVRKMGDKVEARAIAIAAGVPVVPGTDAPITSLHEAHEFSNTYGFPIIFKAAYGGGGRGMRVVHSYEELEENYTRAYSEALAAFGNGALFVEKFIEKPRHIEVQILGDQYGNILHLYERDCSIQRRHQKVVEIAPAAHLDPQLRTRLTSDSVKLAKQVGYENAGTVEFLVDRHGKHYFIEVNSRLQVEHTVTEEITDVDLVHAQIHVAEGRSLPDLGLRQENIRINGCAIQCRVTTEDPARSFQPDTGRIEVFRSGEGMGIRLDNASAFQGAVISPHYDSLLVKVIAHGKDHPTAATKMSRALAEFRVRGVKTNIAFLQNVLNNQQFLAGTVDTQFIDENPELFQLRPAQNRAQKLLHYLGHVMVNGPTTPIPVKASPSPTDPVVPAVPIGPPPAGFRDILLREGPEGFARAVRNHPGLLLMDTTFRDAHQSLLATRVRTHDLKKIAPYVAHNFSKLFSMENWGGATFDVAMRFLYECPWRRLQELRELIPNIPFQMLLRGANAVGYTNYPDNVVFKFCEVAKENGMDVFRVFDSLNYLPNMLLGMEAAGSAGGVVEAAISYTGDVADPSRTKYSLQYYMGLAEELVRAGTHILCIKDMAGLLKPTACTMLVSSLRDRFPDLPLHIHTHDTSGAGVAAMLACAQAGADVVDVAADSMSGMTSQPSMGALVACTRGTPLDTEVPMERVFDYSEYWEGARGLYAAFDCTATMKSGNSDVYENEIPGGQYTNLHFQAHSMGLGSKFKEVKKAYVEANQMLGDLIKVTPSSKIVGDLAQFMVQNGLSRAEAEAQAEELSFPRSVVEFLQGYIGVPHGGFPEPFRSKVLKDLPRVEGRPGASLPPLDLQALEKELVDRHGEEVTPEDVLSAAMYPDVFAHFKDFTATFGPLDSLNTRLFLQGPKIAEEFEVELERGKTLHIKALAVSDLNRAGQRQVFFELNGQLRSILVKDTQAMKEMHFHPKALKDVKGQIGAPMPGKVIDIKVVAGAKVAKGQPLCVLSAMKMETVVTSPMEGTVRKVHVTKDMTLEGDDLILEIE
UniProt Q16342: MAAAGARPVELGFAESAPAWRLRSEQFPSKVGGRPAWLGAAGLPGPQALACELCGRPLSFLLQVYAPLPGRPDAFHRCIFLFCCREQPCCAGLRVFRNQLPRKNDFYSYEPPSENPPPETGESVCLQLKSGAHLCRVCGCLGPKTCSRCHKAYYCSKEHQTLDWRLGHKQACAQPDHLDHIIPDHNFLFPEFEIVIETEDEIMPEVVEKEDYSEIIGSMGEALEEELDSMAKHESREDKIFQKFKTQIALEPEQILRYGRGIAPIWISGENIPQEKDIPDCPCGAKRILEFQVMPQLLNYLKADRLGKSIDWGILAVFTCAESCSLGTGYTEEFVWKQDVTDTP
UniProt Q86TB9: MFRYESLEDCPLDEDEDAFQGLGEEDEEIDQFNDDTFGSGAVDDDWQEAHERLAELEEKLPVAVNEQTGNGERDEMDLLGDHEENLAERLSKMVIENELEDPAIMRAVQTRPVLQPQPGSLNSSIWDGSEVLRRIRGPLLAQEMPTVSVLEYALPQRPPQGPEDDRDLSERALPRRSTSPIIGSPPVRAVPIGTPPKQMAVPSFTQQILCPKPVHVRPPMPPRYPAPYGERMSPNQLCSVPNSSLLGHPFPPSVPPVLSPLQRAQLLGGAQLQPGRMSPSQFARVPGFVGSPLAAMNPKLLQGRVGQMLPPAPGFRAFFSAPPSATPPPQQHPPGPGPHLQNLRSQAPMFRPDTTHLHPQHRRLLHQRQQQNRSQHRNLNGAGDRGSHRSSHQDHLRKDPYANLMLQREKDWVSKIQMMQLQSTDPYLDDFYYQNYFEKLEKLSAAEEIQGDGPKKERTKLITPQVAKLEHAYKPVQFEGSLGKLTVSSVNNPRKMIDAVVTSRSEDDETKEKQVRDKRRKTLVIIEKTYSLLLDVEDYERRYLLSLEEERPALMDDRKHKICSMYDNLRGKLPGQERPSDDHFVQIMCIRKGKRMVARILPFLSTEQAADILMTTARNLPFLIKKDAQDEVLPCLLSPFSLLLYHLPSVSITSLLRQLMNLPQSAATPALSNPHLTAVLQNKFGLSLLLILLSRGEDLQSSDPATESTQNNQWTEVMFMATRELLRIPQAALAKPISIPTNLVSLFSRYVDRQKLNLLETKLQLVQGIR
UniProt Q5EBL8: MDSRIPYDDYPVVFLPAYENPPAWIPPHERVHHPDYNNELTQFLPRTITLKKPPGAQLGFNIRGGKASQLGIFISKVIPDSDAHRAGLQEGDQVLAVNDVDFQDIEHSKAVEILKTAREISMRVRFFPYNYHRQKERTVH
UniProt Q9NR12, whole entry, looked up: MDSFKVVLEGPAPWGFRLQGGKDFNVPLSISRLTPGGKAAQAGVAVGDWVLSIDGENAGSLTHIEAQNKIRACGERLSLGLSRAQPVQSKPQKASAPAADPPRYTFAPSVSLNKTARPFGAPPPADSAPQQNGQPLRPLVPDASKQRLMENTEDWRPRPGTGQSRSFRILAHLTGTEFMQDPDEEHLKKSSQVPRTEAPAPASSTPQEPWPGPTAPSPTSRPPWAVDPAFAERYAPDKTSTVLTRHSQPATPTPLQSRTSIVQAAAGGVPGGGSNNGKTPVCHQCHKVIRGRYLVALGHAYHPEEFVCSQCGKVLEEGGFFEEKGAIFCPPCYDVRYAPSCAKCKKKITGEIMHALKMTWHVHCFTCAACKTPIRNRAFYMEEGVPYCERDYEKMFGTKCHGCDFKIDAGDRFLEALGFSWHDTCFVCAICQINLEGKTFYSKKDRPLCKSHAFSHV
UniProt Q92968: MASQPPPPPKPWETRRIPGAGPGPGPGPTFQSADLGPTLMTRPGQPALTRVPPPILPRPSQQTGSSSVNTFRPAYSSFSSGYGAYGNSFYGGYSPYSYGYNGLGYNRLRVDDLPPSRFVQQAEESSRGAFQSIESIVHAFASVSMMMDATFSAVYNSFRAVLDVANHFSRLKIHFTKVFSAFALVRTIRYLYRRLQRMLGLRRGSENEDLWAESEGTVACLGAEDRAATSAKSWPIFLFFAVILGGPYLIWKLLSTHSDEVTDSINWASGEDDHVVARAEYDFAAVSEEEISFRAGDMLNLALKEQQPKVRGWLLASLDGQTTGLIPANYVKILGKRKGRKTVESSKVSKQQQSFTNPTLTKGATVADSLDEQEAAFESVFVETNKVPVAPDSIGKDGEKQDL
UniProt Q9H300: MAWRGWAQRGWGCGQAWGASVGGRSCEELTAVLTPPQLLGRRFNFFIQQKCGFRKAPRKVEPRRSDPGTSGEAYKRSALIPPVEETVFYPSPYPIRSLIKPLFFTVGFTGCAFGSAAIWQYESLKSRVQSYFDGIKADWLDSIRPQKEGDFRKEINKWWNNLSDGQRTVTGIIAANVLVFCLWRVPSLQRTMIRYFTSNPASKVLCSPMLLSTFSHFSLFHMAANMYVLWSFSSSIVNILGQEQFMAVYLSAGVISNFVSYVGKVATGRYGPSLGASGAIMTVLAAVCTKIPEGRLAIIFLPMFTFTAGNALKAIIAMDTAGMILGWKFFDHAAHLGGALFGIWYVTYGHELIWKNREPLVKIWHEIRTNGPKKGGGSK
UniProt P51160: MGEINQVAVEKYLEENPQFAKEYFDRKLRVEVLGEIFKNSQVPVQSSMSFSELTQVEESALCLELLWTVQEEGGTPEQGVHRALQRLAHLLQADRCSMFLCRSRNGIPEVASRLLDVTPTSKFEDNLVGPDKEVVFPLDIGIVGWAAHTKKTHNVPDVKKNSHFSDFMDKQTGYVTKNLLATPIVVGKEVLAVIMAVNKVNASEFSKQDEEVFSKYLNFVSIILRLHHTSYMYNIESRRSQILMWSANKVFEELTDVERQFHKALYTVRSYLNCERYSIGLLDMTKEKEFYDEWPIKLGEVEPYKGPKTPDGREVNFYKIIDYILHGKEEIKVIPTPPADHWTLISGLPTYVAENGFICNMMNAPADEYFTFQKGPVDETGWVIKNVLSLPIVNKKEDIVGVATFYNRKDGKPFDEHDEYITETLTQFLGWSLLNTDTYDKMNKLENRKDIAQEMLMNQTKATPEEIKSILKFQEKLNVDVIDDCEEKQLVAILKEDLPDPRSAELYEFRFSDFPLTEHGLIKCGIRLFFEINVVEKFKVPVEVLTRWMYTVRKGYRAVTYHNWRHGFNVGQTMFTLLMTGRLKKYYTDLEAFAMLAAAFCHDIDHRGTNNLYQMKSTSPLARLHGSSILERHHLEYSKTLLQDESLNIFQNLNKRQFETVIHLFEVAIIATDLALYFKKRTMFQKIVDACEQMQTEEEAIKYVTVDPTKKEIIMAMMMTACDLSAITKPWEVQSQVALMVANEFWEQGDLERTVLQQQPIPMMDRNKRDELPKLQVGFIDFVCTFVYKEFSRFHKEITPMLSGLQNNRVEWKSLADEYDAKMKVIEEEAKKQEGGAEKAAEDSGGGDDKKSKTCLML
UniProt Q15004: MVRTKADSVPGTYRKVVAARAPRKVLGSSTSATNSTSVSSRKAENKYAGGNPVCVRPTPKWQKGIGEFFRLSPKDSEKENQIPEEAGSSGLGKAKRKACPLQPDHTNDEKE
UniProt O75340: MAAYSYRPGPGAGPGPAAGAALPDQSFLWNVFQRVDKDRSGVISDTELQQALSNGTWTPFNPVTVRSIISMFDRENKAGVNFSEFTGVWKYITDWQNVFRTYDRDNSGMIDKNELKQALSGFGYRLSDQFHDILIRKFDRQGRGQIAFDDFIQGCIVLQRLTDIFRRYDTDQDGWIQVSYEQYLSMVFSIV
UniProt Q5JVF3: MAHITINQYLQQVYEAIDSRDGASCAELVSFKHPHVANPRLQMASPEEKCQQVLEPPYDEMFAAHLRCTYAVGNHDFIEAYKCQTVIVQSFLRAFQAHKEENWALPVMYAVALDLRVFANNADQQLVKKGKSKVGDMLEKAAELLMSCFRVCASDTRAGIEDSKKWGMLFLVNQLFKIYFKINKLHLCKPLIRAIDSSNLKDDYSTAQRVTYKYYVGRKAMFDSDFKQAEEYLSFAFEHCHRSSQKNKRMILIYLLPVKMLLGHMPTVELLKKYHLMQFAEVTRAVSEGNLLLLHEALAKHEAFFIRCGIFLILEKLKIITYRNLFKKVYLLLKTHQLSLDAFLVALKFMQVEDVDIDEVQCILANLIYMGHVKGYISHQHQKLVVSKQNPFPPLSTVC
UniProt Q9NV79: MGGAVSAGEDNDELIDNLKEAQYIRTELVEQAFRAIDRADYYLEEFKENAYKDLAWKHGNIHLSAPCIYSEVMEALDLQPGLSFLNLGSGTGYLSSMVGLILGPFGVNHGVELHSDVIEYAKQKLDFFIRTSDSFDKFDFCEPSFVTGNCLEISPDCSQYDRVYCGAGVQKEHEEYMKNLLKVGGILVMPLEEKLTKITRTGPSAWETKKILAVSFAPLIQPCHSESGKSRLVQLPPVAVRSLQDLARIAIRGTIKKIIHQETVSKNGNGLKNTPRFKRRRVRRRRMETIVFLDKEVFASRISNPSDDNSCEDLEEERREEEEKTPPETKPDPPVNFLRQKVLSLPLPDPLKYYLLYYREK

Key:
Assay in all cases: log2 fold change, soluble protein after heating vs DMSO (PISA); higher = thermal stabilisation; K562 cells, 10 uM, 30 min; active = over 0.2 and 3.5 SD of the protein, either way, in both replicates (recomputed)
[1] = compound: COC1=CC=C(C=C1)CN2C=CC3=C2C=C(C=C3)C(=O)NO
Method in brief: (§1)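 Values are thermal stability changes relative to control samples and are taken from duplicates. They are stated as log2 fold changes. Before quantification by TMTpro 16plex LC-MS/MS with equalised channel sums, K562 cells at 2×10^6 cells/mL were treated with 10 μM compound for 30 min, heated in aliquots for 3 min across 48°C-58°C, pooled, extracted in PBS with 0.5% NP-40 at 4°C, and centrifuged at 21,000xg for 90 min to give the soluble supernatant.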

[2] = compound: CON(C)C(=O)N1N=C(c2cc(F)ccc2F)S[C@@]1(CCCN)c1ccccc1 [filanesib]
Method in brief: as §1

[3] = compound: CO[C@H]1C[C@@H]2CC[C@@H](C)[C@@](O)(O2)C(=O)C(=O)N2CCCC[C@H]2C(=O)O[C@H]([C@H](C)C[C@@H]2CC[C@H](n3cnnn3)[C@H](OC)C2)CC(=O)[C@H](C)/C=C(\C)[C@@H](O)[C@@H](OC)C(=O)[C@H](C)C[C@H](C)/C=C/C=C/C=C/1C [zotarolimus]
Method in brief: as §1

[4] = compound: COc1cc(C(=O)O)ccc1NC(=O)[C@@H]1N[C@@H](CC(C)(C)C)[C@](C#N)(c2ccc(Cl)cc2F)[C@H]1c1cccc(Cl)c1F [idasanutlin]
Method in brief: as §1

[5] = compound: COc1cc(Nc2ncc3c(n2)-c2ccc(Cl)cc2C(c2c(F)cccc2OC)=NC3)ccc1C(=O)O [alisertib]
Method in brief: as §1

[6] = compound: COc1cc2nc(-c3cc(F)ccc3O)nc(N[C@@H]3CNC[C@H]3C(C)(C)O)c2cc1OC
Method in brief: as §1

[7] = compound: COc1cc2ncnc(Nc3ccc(F)c(Cl)c3)c2cc1OCCCN1CCOCC1 [gefitinib]
Method in brief: as §1

[8] = compound: COc1cccc2cc(-c3nc([C@H]4CC[C@H](C(=O)O)CC4)n4ncnc(N)c34)[nH]c12
Method in brief: as §1

[9] = compound: CS(=O)(=O)CCNCc1ccc(-c2ccc3ncnc(Nc4ccc(OCc5cccc(F)c5)c(Cl)c4)c3c2)o1 [lapatinib]
Method in brief: as §1

[10] = compound: CS(=O)(=O)N1CCN(Cc2cc3nc(-c4cccc5[nH]ncc45)nc(N4CCOCC4)c3s2)CC1 [pictilisib]
Method in brief: as §1

[11] = compound: CS(=O)(=O)c1ccc(-c2cnc(N)c(C(=O)Nc3ccccc3)n2)cc1
Method in brief: as §1

[12] = compound: C[C@@H](Oc1cc(-c2cnn(C3CCNCC3)c2)cnc1N)c1c(Cl)ccc(F)c1Cl [crizotinib]
Method in brief: as §1

[13] = compound: C[C@@H]1COCCN1C2=NC(=NC(=C2)C3(CC3)S(=O)(=O)C)C4=C5C=CNC5=CC=C4
Method in brief: as §1

[14] = compound: C[C@H](C1=CC=C(C=C1)C(=O)NC2=C3C=CNC3=NC=C2)N
Method in brief: as §1

[15] = compound: Cc1cc(Nc2cc(CN3CCOCC3)c3nc(C)c(Cc4ccc(Cl)cc4F)n3n2)n[nH]1 [gandotinib]
Method in brief: as §1

[16] = compound: Cc1cc(SCc2sc(-c3ccc(C(F)(F)F)cc3)nc2C)ccc1OCC(=O)O
Method in brief: as §1

[17] = compound: Cc1ccc(-n2nc(C(C)(C)C)cc2NC(=O)Nc2ccc(OCCN3CCOCC3)c3ccccc23)cc1 [doramapimod]
Method in brief: as §1

[18] = compound: Cc1ccc(C(=O)N(CCCN)[C@@H](c2nc3cc(Cl)ccc3c(=O)n2Cc2ccccc2)C(C)C)cc1 [ispinesib]
Method in brief: as §1

[19] = compound: C[C@H](Nc1ncnc2nc[nH]c12)c1cc2cccc(Cl)c2c(=O)n1-c1ccccc1 [duvelisib]
Method in brief: as §1

[20] = compound: Cc1cc(Nc2cc(N3CCN(C)CC3)nc(Sc3ccc(NC(=O)C4CC4)cc3)n2)n[nH]1 [tozasertib]
Method in brief: as §1

Measured: log2 fold change

PC (UniProt P11498)
active: [4] -0.372
inactive: [1] 0.05 | [2] 0.08 | [3] -0.04 | [5] -0.039 | [6] 0.14 | [7] 0.024 | [8] 0.014 | [9] -0.011 | [10] 0.09 | [11] 0.033 | [12] 0.103 | [13] 0.199 | [14] 0.167 | [15] -0.143 | [16] 0.024 | [17] 0.008 | [18] 0.186

PDCD2 (UniProt Q16342)
inactive: [1] -0.018 | [2] 0.21 | [3] 0.036 | [5] 0.014 | [8] -0.178 | [11] 0.048 | [12] -0.028 | [13] -0.152 | [14] 0.322 | [19] 0.033 | [20] 0.107 | [16] 0.179 | [17] 0.183

PATL1 (UniProt Q86TB9)
active: [18] -0.339
inactive: [1] -0.015 | [2] -0.009 | [3] 0.076 | [4] 0.049 | [5] -0.035 | [6] -0.135 | [8] 0.069 | [9] 0.05 | [10] -0.115 | [11] -0.014 | [12] -0.201 | [13] -0.037 | [14] 0.122 | [15] -0.139 | [16] 0.039 | [17] 0.12

PDZD11 isoform 2 (UniProt Q5EBL8)
inactive: [1] 0.003 | [2] 0.066 | [5] 0.007 | [6] 0.08 | [7] 0.069 | [8] -0.114 | [9] 0.025 | [10] -0.002 | [11] 0.062 | [12] 0.044 | [13] 0.089 | [19] 0.12 | [15] 0.013 | [20] 0.055 | [16] 0.04 | [17] 0.073 | [18] 0.048

PDLIM7 (UniProt Q9NR12)
inactive: [1] 0.055 | [2] 0.014 | [3] 0.014 | [4] -0.042 | [5] -0.06 | [6] 0.03 | [7] -0.104 | [8] 0.012 | [9] 0.012 | [10] -0.046 | [11] -0.01 | [12] -0.075 | [13] -0.002 | [14] -0.05 | [15] 0.026 | [16] 0.004 | [17] 0.012 | [18] -0.075

PEX13 (UniProt Q92968)
active: [6] -0.318
inactive: [1] 0.028 | [2] -0.072 | [3] -0.129 | [4] -0.019 | [5] -0.037 | [7] -0.045 | [8] 0.115 | [9] -0.013 | [10] 0.009 | [11] -0.005 | [12] -0.146 | [13] 0.034 | [14] -0.047 | [15] -0.143 | [16] -0.016 | [17] 0.056 | [18] -0.026

PARL (UniProt Q9H300)
inactive: [1] -0.061 | [2] -0.091 | [3] -0.034 | [4] -0.068 | [5] -0.016 | [6] -0.2 | [7] 0.038 | [8] 0.08 | [9] 0.04 | [10] 0.011 | [11] -0.004 | [12] -0.036 | [13] 0.186 | [14] -0.011 | [15] 0.025 | [16] -0.035 | [17] -0.009 | [18] -0.193

PDE6C (UniProt P51160)
inactive: [1] 0.18 | [2] -0.128 | [3] 0.143 | [4] -0.241 | [5] -0.157 | [6] -0.14 | [7] -0.071 | [8] 0.178 | [9] 0.044 | [11] -0.111 | [12] -0.008 | [14] 0 | [19] -0.132 | [20] -0.02 | [16] 0.001 | [17] -0.013 | [18] 0.004

PAFAH1B1 (UniProt I3L3N5)
inactive: [1] -0.219 | [3] -0.147 | [4] -0.122 | [5] 0.088 | [6] 0.202 | [8] 0.009 | [9] -0.183 | [12] 0.121 | [14] 0.195 | [19] 0.175 | [16] -0.129 | [17] 0.032

Retrieved one by one from the list above (2):
PAFAH1B1 (UniProt I3L3N5)
inactive: [1] -0.219 | [3] -0.147 | [4] -0.122 | [5] 0.088 | [6] 0.202 | [8] 0.009 | [9] -0.183 | [12] 0.121 | [14] 0.195 | [19] 0.175 | [16] -0.129 | [17] 0.032

PDE6C (UniProt P51160)
inactive: [1] 0.18 | [2] -0.128 | [3] 0.143 | [4] -0.241 | [5] -0.157 | [6] -0.14 | [7] -0.071 | [8] 0.178 | [9] 0.044 | [11] -0.111 | [12] -0.008 | [14] 0 | [19] -0.132 | [20] -0.02 | [16] 0.001 | [17] -0.013 | [18] 0.004

Next part:

PCLAF (UniProt Q15004)
inactive: [1] -0.115 | [2] 0.158 | [3] -0.172 | [4] 0.066 | [5] -0.035 | [6] -0.018 | [7] -0.057 | [8] -0.162 | [9] 0.033 | [10] -0.015 | [11] -0.175 | [12] 0.027 | [13] -0.19 | [14] 0.052 | [15] -0.07 | [16] -0.097 | [17] 0.022 | [18] 0.079

PDCD6 (UniProt O75340)
inactive: [1] -0.06 | [2] -0.124 | [3] -0.03 | [4] -0.106 | [5] 0.092 | [6] 0.047 | [7] -0.021 | [8] 0.013 | [9] -0.035 | [10] 0.038 | [11] 0.029 | [12] -0.047 | [13] 0.051 | [14] -0.021 | [15] -0.056 | [16] 0.038 | [17] 0.002 | [18] -0.045

PCID2 (UniProt Q5JVF3)
inactive: [1] -0.136 | [2] -0.025 | [3] -0.07 | [5] 0.087 | [6] 0.009 | [7] 0.039 | [8] -0.023 | [9] 0.175 | [10] 0.013 | [11] 0.157 | [12] -0.171 | [13] -0.138 | [14] 0.246 | [15] -0.149 | [16] 0.058 | [17] -0.005 | [18] -0.096

PCYT2 (UniProt I3L1F9)
inactive: [6] 0.125 | [9] -0.046

PCMTD2 (UniProt Q9NV79)
inactive: [5] -0.032 | [7] -0.109 | [8] 0.075 | [20] 0.005 | [18] -0.162
